Laboratory results published in the supplement of paper PMC12823440, “Inhibitors supercharge kinase turnover through native proteolytic circuits” (Nature, 2025).
This is one part of the list. The calls rarely recur for the same compound in another form.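 In K562 cells expressing nanoluciferase-fused kinases, luminescence was recorded at 4 h intervals between 2 and 18 h, normalized as percent of control with DMSO at 100% and a positive control at 0%. A significant (2 sigma) signal drop marks a time point as decreased. The authors' rule for a hit is not shown and takes in more than the number of time points.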

The chains behind the UniProt entries cited, without tags or fusion partners. Where a name states a change or a piece, a line headed by the entry shows the natural chain unless it says otherwise.
UniProt Q15208: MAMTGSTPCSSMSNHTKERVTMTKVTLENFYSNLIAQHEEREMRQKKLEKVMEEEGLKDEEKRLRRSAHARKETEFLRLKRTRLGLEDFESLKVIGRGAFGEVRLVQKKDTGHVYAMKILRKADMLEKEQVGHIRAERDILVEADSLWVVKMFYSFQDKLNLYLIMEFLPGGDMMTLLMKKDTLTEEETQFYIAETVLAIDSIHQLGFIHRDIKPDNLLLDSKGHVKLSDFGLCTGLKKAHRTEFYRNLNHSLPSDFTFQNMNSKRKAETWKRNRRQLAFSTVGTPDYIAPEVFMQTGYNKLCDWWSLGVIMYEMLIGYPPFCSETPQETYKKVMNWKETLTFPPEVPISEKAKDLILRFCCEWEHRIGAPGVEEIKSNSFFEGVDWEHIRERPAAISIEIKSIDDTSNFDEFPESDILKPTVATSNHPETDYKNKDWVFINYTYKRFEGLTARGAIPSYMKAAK
UniProt P42680: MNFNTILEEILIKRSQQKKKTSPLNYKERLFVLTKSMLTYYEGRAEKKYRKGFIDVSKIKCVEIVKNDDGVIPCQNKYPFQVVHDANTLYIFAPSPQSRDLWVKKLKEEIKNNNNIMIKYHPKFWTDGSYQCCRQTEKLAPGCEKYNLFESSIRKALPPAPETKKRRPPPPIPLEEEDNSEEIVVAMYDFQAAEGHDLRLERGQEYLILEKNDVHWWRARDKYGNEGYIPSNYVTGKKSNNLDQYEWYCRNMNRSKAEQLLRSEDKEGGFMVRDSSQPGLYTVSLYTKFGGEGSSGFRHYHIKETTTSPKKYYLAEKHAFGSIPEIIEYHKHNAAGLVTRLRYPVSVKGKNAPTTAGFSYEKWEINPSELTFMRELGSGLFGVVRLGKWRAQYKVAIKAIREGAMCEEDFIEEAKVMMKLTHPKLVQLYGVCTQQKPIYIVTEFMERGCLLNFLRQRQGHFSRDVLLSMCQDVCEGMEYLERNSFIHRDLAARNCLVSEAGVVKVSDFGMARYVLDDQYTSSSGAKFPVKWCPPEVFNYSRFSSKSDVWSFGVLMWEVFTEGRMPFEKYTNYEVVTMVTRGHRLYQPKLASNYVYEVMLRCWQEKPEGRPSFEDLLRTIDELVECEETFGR
UniProt P29597: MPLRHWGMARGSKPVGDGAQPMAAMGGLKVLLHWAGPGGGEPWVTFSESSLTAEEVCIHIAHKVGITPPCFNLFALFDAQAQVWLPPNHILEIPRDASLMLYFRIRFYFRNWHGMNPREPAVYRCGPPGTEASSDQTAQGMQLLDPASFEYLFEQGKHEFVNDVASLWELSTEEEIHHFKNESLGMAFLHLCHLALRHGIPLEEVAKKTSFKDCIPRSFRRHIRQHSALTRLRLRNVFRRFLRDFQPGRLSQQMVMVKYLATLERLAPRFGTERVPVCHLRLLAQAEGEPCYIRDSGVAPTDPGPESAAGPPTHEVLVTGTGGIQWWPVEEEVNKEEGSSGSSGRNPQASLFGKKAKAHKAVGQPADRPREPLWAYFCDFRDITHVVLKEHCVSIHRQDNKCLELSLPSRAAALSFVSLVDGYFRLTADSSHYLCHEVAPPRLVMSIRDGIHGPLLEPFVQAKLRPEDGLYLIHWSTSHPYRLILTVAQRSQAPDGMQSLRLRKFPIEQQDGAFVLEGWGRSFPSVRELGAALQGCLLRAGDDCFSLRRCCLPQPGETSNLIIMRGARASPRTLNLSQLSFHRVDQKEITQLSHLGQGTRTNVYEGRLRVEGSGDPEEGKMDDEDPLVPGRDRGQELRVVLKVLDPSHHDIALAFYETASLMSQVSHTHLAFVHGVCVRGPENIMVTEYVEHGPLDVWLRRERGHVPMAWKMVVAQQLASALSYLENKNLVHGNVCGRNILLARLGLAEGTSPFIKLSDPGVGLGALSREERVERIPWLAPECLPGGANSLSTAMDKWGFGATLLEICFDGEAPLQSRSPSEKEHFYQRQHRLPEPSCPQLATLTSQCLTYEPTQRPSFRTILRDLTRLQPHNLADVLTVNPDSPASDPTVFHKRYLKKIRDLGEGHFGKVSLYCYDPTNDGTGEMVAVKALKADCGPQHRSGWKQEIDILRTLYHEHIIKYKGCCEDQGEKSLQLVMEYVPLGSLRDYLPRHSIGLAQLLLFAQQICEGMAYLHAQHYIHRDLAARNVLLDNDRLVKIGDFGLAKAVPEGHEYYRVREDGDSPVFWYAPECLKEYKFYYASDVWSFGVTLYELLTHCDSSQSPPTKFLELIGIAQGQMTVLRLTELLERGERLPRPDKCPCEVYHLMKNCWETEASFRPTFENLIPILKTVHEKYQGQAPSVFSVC
UniProt Q6PHR2: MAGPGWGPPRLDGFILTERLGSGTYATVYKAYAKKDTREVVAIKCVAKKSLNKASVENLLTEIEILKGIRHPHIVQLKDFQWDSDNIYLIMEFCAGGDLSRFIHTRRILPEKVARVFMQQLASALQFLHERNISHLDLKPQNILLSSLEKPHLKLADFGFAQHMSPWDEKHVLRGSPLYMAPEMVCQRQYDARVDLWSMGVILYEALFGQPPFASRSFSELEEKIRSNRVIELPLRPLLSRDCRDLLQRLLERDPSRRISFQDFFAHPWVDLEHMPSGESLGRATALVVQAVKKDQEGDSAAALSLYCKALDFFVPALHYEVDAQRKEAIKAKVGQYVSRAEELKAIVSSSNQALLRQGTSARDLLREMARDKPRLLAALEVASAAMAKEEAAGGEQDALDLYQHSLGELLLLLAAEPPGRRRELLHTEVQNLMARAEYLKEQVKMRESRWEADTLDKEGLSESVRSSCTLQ
UniProt P07947, whole entry, looked up: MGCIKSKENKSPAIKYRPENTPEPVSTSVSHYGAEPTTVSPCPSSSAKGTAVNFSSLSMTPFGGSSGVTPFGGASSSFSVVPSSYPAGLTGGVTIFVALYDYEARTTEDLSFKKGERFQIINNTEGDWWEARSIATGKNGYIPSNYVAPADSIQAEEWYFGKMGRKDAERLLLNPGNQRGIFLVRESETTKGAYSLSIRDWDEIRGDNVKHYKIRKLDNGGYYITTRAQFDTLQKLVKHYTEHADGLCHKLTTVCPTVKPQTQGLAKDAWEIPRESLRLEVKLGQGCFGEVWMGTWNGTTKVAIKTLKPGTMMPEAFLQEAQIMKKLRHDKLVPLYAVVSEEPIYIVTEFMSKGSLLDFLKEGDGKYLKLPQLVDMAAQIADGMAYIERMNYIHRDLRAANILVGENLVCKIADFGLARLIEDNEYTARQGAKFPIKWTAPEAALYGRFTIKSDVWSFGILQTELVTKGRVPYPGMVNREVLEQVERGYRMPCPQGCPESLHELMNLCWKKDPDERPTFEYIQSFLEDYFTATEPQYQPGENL
UniProt P43403: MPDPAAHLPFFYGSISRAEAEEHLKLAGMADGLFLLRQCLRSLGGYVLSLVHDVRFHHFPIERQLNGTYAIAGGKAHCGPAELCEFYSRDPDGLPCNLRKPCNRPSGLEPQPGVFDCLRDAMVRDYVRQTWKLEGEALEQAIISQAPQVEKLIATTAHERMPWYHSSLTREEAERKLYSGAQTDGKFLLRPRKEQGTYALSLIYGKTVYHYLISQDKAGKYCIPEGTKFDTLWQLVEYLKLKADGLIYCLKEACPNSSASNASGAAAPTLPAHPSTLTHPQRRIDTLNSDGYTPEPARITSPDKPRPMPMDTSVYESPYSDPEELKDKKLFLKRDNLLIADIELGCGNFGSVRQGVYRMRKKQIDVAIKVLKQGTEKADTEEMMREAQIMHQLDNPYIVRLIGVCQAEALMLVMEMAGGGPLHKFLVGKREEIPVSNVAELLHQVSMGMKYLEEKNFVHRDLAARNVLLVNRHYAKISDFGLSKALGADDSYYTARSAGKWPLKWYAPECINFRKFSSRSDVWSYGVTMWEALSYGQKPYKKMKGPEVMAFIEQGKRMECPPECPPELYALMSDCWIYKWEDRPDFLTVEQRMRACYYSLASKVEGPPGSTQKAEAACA
UniProt P00519, whole entry: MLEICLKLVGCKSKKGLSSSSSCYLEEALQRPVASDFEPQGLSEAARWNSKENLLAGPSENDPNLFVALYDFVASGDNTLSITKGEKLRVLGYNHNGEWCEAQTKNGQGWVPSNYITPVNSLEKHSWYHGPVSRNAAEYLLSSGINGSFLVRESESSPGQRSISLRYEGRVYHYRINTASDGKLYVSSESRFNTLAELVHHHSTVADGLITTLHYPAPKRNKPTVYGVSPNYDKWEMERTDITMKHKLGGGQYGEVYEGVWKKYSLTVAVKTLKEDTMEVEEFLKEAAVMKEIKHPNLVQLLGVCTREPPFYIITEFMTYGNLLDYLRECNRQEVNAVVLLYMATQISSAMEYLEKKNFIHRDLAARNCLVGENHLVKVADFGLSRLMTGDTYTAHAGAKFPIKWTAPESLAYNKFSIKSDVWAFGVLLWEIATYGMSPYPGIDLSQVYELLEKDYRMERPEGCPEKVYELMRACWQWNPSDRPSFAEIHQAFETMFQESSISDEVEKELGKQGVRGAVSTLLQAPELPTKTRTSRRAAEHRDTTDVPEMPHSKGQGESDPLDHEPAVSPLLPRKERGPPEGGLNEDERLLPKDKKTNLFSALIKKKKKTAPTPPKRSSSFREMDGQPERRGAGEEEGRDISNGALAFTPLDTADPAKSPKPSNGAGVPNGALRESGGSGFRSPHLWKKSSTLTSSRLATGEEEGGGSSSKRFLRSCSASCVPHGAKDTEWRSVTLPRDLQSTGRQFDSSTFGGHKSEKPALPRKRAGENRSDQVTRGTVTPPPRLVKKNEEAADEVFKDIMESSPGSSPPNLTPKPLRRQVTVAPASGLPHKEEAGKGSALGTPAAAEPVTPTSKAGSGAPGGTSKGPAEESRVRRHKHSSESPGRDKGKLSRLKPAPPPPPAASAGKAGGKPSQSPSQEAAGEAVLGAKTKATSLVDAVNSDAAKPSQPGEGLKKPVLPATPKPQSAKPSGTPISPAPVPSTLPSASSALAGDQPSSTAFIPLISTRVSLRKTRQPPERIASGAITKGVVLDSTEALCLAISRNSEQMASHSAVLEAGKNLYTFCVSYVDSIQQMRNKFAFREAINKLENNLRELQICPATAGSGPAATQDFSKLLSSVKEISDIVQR
UniProt P31749: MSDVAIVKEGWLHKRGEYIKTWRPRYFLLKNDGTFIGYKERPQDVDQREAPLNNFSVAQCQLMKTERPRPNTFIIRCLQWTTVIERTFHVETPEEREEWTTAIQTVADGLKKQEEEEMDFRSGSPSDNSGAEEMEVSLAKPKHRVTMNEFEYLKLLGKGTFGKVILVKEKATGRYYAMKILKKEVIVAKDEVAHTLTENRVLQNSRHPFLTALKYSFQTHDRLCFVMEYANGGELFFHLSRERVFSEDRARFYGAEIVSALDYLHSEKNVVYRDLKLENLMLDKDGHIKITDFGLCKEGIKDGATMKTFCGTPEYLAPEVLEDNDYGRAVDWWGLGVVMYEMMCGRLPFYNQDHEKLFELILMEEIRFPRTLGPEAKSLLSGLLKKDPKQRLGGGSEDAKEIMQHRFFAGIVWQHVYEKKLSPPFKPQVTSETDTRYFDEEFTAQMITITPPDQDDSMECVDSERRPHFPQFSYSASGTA

Key:
Settings in all cases: K562; 2-18 h
STK38 = STK38 (UniProt Q15208); assay: kinase-Nluc reporter destabilization hit call (1 = scored as downregulated) (binary); higher = compound decreases kinase abundance
SYK = SYK (UniProt P43405); assay: as above
TEC = TEC (UniProt P42680); assay: as above
TYK2 = TYK2 (UniProt P29597); assay: as above
ULK3 = ULK3 (UniProt Q6PHR2); assay: as above
YES1 = YES1 (UniProt P07947); assay: as above
ZAK = ZAK (UniProt Q9NYL2); assay: as above
ZAP70 = ZAP70 (UniProt P43403); assay: as above
ABL1 = ABL1 (UniProt P00519); assay: number of time points (of 5) at which kinase-Nluc abundance scored as decreased, DMSO-normalised (count); higher = more persistent destabilization
AKT1 = AKT1 (UniProt P31749); assay: as above

Cc1ccc(-c2c(C(=O)CF)n(CCCO)c3ncnc(N)c23)cc1 (10 µM)
0: number of time points (ABL1) | number of time points (AKT1)
inactive: kinase-Nluc reporter destabilization hit call (STK38) 0 | kinase-Nluc reporter destabilization hit call (SYK) 0 | kinase-Nluc reporter destabilization hit call (TEC) 0 | kinase-Nluc reporter destabilization hit call (TYK2) 0 | kinase-Nluc reporter destabilization hit call (ULK3) 0 | kinase-Nluc reporter destabilization hit call (YES1) 0 | kinase-Nluc reporter destabilization hit call (ZAK) 0 | kinase-Nluc reporter destabilization hit call (ZAP70) 0

CC(C)=CC(=O)CCC(=O)N1CCN(Cc2cc3nc(-c4cccc5[nH]ncc45)nc(N4CCOCC4)c3s2)CC1 (10 µM)
inactive: kinase-Nluc reporter destabilization hit call (STK38) 0 | kinase-Nluc reporter destabilization hit call (SYK) 0 | kinase-Nluc reporter destabilization hit call (TEC) 0 | kinase-Nluc reporter destabilization hit call (TYK2) 0 | kinase-Nluc reporter destabilization hit call (ULK3) 0 | kinase-Nluc reporter destabilization hit call (YES1) 0 | kinase-Nluc reporter destabilization hit call (ZAK) 0 | kinase-Nluc reporter destabilization hit call (ZAP70) 0
0: number of time points (ABL1) | number of time points (AKT1)

COc1cc(C(N)=O)nc(-c2cccc(C#C[C@]3(O)CCN(C)C3=O)c2)c1 (10 µM)
inactive: kinase-Nluc reporter destabilization hit call (STK38) 0 | kinase-Nluc reporter destabilization hit call (SYK) 0 | kinase-Nluc reporter destabilization hit call (TEC) 0 | kinase-Nluc reporter destabilization hit call (TYK2) 0 | kinase-Nluc reporter destabilization hit call (ULK3) 0 | kinase-Nluc reporter destabilization hit call (YES1) 0 | kinase-Nluc reporter destabilization hit call (ZAK) 0 | kinase-Nluc reporter destabilization hit call (ZAP70) 0
0: number of time points (ABL1) | number of time points (AKT1)

Nc1nccc(Oc2ccc(NC(=O)c3cn(COP(=O)(O)O)cc(-c4ccc(F)cc4)c3=O)cc2F)c1Cl (10 µM)
inactive: kinase-Nluc reporter destabilization hit call (STK38) 0 | kinase-Nluc reporter destabilization hit call (SYK) 0 | kinase-Nluc reporter destabilization hit call (TEC) 0 | kinase-Nluc reporter destabilization hit call (TYK2) 0 | kinase-Nluc reporter destabilization hit call (ULK3) 0 | kinase-Nluc reporter destabilization hit call (YES1) 0 | kinase-Nluc reporter destabilization hit call (ZAK) 0 | kinase-Nluc reporter destabilization hit call (ZAP70) 0
0: number of time points (ABL1) | number of time points (AKT1)

CC[C@@]1(c2ccccc2)C2=C(CC(C)(C)CC2=O)Nc2[nH]ncc21 (10 µM)
inactive: kinase-Nluc reporter destabilization hit call (STK38) 0 | kinase-Nluc reporter destabilization hit call (SYK) 0 | kinase-Nluc reporter destabilization hit call (TEC) 0 | kinase-Nluc reporter destabilization hit call (TYK2) 0 | kinase-Nluc reporter destabilization hit call (ULK3) 0 | kinase-Nluc reporter destabilization hit call (YES1) 0 | kinase-Nluc reporter destabilization hit call (ZAK) 0 | kinase-Nluc reporter destabilization hit call (ZAP70) 0
0: number of time points (ABL1) | number of time points (AKT1)

Nc1ncnc2c1c(-c1ccc(Oc3ccccc3)cc1)nn2C1CCCNC1 (racemic) (2.5 µM)
0: number of time points (ABL1) | number of time points (AKT1)
inactive: kinase-Nluc reporter destabilization hit call (STK38) 0 | kinase-Nluc reporter destabilization hit call (SYK) 0 | kinase-Nluc reporter destabilization hit call (TEC) 0 | kinase-Nluc reporter destabilization hit call (TYK2) 0 | kinase-Nluc reporter destabilization hit call (ULK3) 0 | kinase-Nluc reporter destabilization hit call (YES1) 0 | kinase-Nluc reporter destabilization hit call (ZAK) 0 | kinase-Nluc reporter destabilization hit call (ZAP70) 0
